Test results published in US5633003A, “Use of intratracheally administered hyaluronic acid to ameliorate emphysema” (priority 1994, dated 1997).

Tested on: lung elastin
Test: Lung desmosine and isodesmosine measurements (lung elastin content)
Assay type: in vivo, Syrian hamsters
Settings: 24 hours

Row | Substance | lung elastin content (all animals receiving elastase vs saline alone) | lung content of desmosine and isodesmosine cross-links (elastin) (saline then elastase) [μg/mg dry lung] | lung content of desmosine and isodesmosine cross-links (elastin) (elastase then hyaluronidase) [μg/mg dry lung] | lung content of desmosine and isodesmosine cross-links (elastin) (hyaluronidase then elastase) [μg/mg dry lung]
1 | elastase: porcine pancreatic elastase (Elastin Products), used to induce emphysema | significant reduction in lung elastin content; also recorded: significant decrease in cross-linked elastin | 192 |  | 
2 | hyaluronidase |  |  | 184 | 206

Entries after “also recorded” stand apart in the source; their conditions may differ.
